# In paper PMC5433425 (PeerJ, 2017):
# Further values from the same series stand in other lists.
# Tested on: E. coli AG100
# Test: EtBr efflux by real-time fluorometry
# Details: 80 µM
structure (smiles),measurement,setting,value
"CN(C)CCCN1c2ccccc2Sc2ccc(Cl)cc21 [CPZ, chlorpromazine]",EtBr fluorescence (Channel Cycling A.530/585hp),"cycle 1, + glucose",27.2203
same,EtBr fluorescence (Channel Cycling A.530/585hp),"cycle 1, without glucose",28.6428
same,EtBr fluorescence (Channel Cycling A.530/585hp),"cycle 2, + glucose",26.8654
same,EtBr fluorescence (Channel Cycling A.530/585hp),"cycle 2, without glucose",28.0719
same,EtBr fluorescence (Channel Cycling A.530/585hp),"cycle 3, + glucose",27.321
same,EtBr fluorescence (Channel Cycling A.530/585hp),"cycle 3, without glucose",28.0789
same,EtBr fluorescence (Channel Cycling A.530/585hp),"cycle 4, + glucose",27.7793
same,EtBr fluorescence (Channel Cycling A.530/585hp),"cycle 4, without glucose",27.7923
same,EtBr fluorescence (Channel Cycling A.530/585hp),"cycle 5, + glucose",27.8731
same,EtBr fluorescence (Channel Cycling A.530/585hp),"cycle 5, without glucose",28.1016
same,EtBr fluorescence (Channel Cycling A.530/585hp),"cycle 6, + glucose",28.7085
same,EtBr fluorescence (Channel Cycling A.530/585hp),"cycle 6, without glucose",27.8949
same,EtBr fluorescence (Channel Cycling A.530/585hp),"cycle 7, + glucose",28.8867
same,EtBr fluorescence (Channel Cycling A.530/585hp),"cycle 7, without glucose",28.2166
same,EtBr fluorescence (Channel Cycling A.530/585hp),"cycle 8, + glucose",29.4883
same,EtBr fluorescence (Channel Cycling A.530/585hp),"cycle 8, without glucose",28.5752
same,EtBr fluorescence (Channel Cycling A.530/585hp),"cycle 9, + glucose",29.85
same,EtBr fluorescence (Channel Cycling A.530/585hp),"cycle 9, without glucose",28.7691
same,EtBr fluorescence (Channel Cycling A.530/585hp),"cycle 10, + glucose",30.1902
same,EtBr fluorescence (Channel Cycling A.530/585hp),"cycle 10, without glucose",29.1814
same,EtBr fluorescence (Channel Cycling A.530/585hp),"cycle 11, + glucose",30.2907
same,EtBr fluorescence (Channel Cycling A.530/585hp),"cycle 11, without glucose",29.2805
same,EtBr fluorescence (Channel Cycling A.530/585hp),"cycle 12, + glucose",30.9827
same,EtBr fluorescence (Channel Cycling A.530/585hp),"cycle 12, without glucose",29.6425
same,EtBr fluorescence (Channel Cycling A.530/585hp),"cycle 13, + glucose",31.4798
same,EtBr fluorescence (Channel Cycling A.530/585hp),"cycle 13, without glucose",29.6207
same,EtBr fluorescence (Channel Cycling A.530/585hp),"cycle 14, + glucose",31.9618
same,EtBr fluorescence (Channel Cycling A.530/585hp),"cycle 14, without glucose",29.9123
same,EtBr fluorescence (Channel Cycling A.530/585hp),"cycle 15, + glucose",32.3424
same,EtBr fluorescence (Channel Cycling A.530/585hp),"cycle 15, without glucose",30.0665
same,EtBr fluorescence (Channel Cycling A.530/585hp),"cycle 16, + glucose",33.13
same,EtBr fluorescence (Channel Cycling A.530/585hp),"cycle 16, without glucose",30.8072
same,EtBr fluorescence (Channel Cycling A.530/585hp),"cycle 17, + glucose",32.8622
same,EtBr fluorescence (Channel Cycling A.530/585hp),"cycle 17, without glucose",30.7994
same,EtBr fluorescence (Channel Cycling A.530/585hp),"cycle 18, + glucose",33.7388
same,EtBr fluorescence (Channel Cycling A.530/585hp),"cycle 18, without glucose",30.7622
same,EtBr fluorescence (Channel Cycling A.530/585hp),"cycle 19, + glucose",33.8845
same,EtBr fluorescence (Channel Cycling A.530/585hp),"cycle 19, without glucose",31.3764
same,EtBr fluorescence (Channel Cycling A.530/585hp),"cycle 20, + glucose",33.9442
same,EtBr fluorescence (Channel Cycling A.530/585hp),"cycle 20, without glucose",31.5156
same,EtBr fluorescence (Channel Cycling A.530/585hp),"cycle 21, + glucose",34.3645
same,EtBr fluorescence (Channel Cycling A.530/585hp),"cycle 21, without glucose",31.7951
same,EtBr fluorescence (Channel Cycling A.530/585hp),"cycle 22, + glucose",34.5828
same,EtBr fluorescence (Channel Cycling A.530/585hp),"cycle 22, without glucose",32.2136
same,EtBr fluorescence (Channel Cycling A.530/585hp),"cycle 23, + glucose",34.7857
same,EtBr fluorescence (Channel Cycling A.530/585hp),"cycle 23, without glucose",32.4861
same,EtBr fluorescence (Channel Cycling A.530/585hp),"cycle 24, + glucose",35.3156
same,EtBr fluorescence (Channel Cycling A.530/585hp),"cycle 24, without glucose",32.7551
same,EtBr fluorescence (Channel Cycling A.530/585hp),"cycle 25, + glucose",35.4931
same,EtBr fluorescence (Channel Cycling A.530/585hp),"cycle 25, without glucose",33.0906
same,EtBr fluorescence (Channel Cycling A.530/585hp),"cycle 26, + glucose",35.6971
same,EtBr fluorescence (Channel Cycling A.530/585hp),"cycle 26, without glucose",33.2642
same,EtBr fluorescence (Channel Cycling A.530/585hp),"cycle 27, + glucose",35.6663
same,EtBr fluorescence (Channel Cycling A.530/585hp),"cycle 27, without glucose",33.4015
same,EtBr fluorescence (Channel Cycling A.530/585hp),"cycle 28, + glucose",35.5241
same,EtBr fluorescence (Channel Cycling A.530/585hp),"cycle 28, without glucose",33.9385
same,EtBr fluorescence (Channel Cycling A.530/585hp),"cycle 29, + glucose",36.1118
same,EtBr fluorescence (Channel Cycling A.530/585hp),"cycle 29, without glucose",33.96
same,EtBr fluorescence (Channel Cycling A.530/585hp),"cycle 30, + glucose",36.4609
same,EtBr fluorescence (Channel Cycling A.530/585hp),"cycle 30, without glucose",34.4741
same,EtBr fluorescence (Channel Cycling A.530/585hp),"cycle 31, + glucose",36.437
same,EtBr fluorescence (Channel Cycling A.530/585hp),"cycle 31, without glucose",34.7454
same,EtBr fluorescence (Channel Cycling A.530/585hp),"cycle 32, + glucose",37.0162
same,EtBr fluorescence (Channel Cycling A.530/585hp),"cycle 32, without glucose",35.2459
same,EtBr fluorescence (Channel Cycling A.530/585hp),"cycle 33, + glucose",36.6013
same,EtBr fluorescence (Channel Cycling A.530/585hp),"cycle 33, without glucose",35.694
same,EtBr fluorescence (Channel Cycling A.530/585hp),"cycle 34, + glucose",36.6626
same,EtBr fluorescence (Channel Cycling A.530/585hp),"cycle 34, without glucose",35.5648
same,EtBr fluorescence (Channel Cycling A.530/585hp),"cycle 35, + glucose",37.2483
same,EtBr fluorescence (Channel Cycling A.530/585hp),"cycle 35, without glucose",35.7608
same,EtBr fluorescence (Channel Cycling A.530/585hp),"cycle 36, + glucose",37.1295
same,EtBr fluorescence (Channel Cycling A.530/585hp),"cycle 36, without glucose",36.2644
same,EtBr fluorescence (Channel Cycling A.530/585hp),"cycle 37, + glucose",37.0059
same,EtBr fluorescence (Channel Cycling A.530/585hp),"cycle 37, without glucose",36.4583
same,EtBr fluorescence (Channel Cycling A.530/585hp),"cycle 38, + glucose",36.7797
same,EtBr fluorescence (Channel Cycling A.530/585hp),"cycle 38, without glucose",37.0039
same,EtBr fluorescence (Channel Cycling A.530/585hp),"cycle 39, + glucose",37.423
same,EtBr fluorescence (Channel Cycling A.530/585hp),"cycle 39, without glucose",37.2414
same,EtBr fluorescence (Channel Cycling A.530/585hp),"cycle 40, + glucose",36.9377
same,EtBr fluorescence (Channel Cycling A.530/585hp),"cycle 40, without glucose",37.3825
same,EtBr fluorescence (Channel Cycling A.530/585hp),"cycle 41, + glucose",37.4729
same,EtBr fluorescence (Channel Cycling A.530/585hp),"cycle 41, without glucose",37.9067
same,EtBr fluorescence (Channel Cycling A.530/585hp),"cycle 42, + glucose",37.6339
